# Results are given in words; binding and its absence hold for the method and conditions named. Binding seen in cells or lysates may run through a third protein. Some results given as binding are weak or reduced against the parent protein; the word gives no strength.
# By UniProt entry, the sequences of proteins in these tests, tags left out. Residues count along the entry.
# UniProt O43295: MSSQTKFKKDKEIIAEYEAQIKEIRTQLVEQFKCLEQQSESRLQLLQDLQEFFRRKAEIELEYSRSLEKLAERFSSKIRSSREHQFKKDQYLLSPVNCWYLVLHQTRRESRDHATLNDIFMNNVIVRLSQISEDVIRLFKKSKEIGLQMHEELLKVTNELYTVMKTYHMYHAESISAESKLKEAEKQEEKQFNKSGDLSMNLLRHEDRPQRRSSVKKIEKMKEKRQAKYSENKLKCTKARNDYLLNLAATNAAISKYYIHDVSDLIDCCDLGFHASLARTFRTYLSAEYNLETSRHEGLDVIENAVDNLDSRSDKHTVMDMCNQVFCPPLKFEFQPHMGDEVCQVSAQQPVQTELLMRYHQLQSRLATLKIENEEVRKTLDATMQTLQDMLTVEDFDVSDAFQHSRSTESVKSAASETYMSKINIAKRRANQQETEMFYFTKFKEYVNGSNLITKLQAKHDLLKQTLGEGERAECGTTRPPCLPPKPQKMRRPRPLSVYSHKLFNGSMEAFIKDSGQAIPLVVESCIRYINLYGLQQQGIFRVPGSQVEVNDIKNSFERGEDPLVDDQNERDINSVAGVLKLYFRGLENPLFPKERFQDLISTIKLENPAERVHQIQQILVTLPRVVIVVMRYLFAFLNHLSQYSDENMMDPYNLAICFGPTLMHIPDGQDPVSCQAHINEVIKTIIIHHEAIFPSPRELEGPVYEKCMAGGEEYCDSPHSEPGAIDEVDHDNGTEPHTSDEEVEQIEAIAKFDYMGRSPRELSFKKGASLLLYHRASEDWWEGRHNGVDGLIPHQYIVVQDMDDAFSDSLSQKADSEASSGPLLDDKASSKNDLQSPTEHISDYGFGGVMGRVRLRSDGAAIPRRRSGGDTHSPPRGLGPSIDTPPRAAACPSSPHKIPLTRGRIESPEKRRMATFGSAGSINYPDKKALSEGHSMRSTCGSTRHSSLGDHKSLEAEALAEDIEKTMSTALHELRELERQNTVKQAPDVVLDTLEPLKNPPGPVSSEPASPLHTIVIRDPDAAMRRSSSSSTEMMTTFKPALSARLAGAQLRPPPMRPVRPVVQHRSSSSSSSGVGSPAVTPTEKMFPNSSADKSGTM
# UniProt Q9Y6N7, residues 26-1651: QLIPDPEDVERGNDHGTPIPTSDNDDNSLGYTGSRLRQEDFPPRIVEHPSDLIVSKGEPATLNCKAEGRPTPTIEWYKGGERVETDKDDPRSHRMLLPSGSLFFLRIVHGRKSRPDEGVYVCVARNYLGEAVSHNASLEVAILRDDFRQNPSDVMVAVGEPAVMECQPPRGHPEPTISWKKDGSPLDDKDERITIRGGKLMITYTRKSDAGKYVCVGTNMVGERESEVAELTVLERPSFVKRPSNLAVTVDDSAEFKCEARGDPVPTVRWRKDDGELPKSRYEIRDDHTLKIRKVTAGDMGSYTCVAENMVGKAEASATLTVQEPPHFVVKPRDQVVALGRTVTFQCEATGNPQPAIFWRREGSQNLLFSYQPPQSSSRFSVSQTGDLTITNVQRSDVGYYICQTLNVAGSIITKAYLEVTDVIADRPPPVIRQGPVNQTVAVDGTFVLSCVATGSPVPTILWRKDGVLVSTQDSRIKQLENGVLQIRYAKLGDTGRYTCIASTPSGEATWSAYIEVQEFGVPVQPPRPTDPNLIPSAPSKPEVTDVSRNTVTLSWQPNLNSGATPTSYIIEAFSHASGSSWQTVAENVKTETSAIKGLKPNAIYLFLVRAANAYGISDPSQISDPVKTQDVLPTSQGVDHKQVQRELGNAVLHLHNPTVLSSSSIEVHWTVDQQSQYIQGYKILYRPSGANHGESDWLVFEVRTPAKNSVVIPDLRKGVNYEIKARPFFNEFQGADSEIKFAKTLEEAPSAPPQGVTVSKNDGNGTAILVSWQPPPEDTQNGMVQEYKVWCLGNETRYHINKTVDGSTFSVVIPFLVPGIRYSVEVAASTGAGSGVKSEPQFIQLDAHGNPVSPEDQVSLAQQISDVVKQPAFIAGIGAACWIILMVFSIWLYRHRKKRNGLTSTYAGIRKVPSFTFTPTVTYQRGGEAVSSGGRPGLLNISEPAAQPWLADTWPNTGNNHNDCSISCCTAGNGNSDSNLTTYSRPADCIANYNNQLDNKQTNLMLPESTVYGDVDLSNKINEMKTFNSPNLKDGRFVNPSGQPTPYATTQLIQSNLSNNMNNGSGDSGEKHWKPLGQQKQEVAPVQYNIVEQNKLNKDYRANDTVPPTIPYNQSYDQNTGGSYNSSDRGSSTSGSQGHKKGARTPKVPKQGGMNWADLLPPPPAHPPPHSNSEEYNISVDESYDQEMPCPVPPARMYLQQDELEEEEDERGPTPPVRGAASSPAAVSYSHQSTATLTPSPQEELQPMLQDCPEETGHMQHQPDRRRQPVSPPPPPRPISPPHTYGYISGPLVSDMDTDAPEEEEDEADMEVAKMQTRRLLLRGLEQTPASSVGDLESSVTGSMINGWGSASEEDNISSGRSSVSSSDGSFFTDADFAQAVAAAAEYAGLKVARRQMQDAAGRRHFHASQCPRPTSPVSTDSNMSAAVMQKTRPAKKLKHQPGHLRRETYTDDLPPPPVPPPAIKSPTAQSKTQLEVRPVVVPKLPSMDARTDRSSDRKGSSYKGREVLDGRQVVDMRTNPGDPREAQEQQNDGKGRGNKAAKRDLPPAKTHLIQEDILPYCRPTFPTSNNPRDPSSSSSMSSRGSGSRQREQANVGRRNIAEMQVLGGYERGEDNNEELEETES
# UniProt Q9HCK4, residues 22-1378: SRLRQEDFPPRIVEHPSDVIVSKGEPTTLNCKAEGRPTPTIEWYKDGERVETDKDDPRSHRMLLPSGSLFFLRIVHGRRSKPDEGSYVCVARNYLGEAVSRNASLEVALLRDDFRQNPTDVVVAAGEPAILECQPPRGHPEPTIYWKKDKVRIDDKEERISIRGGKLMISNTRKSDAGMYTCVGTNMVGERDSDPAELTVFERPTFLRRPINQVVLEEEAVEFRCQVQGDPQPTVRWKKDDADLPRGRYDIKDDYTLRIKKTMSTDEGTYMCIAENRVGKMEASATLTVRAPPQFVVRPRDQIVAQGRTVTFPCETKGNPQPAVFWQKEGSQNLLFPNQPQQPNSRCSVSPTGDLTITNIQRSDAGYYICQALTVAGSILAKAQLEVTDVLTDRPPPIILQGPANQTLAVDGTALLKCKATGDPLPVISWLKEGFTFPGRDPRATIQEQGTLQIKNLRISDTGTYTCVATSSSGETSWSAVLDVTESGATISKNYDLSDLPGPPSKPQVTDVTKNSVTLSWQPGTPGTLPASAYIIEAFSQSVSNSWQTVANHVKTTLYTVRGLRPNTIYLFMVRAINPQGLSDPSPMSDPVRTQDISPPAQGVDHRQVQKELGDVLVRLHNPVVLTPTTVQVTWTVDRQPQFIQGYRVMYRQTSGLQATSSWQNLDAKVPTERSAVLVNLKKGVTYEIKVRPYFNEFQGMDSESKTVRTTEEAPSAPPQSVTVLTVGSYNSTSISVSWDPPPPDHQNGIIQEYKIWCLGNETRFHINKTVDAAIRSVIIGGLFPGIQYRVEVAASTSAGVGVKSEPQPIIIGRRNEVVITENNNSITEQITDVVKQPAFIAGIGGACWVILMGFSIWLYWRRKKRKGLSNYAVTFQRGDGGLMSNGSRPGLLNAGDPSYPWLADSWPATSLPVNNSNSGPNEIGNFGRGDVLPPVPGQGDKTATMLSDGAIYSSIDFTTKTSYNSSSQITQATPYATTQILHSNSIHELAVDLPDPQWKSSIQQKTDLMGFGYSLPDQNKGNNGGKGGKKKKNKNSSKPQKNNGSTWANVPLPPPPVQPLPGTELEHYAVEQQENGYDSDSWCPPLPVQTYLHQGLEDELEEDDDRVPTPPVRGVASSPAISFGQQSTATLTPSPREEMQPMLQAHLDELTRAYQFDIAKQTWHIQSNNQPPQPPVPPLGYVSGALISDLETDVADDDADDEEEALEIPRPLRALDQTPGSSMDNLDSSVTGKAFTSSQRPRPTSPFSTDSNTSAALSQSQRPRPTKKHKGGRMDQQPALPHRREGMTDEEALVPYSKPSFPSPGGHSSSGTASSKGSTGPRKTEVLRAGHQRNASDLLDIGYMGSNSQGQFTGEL
# Molecular target: Slit-Robo GTPase activating protein 3 (srGAP3), full length (UniProt O43295)
# Experiment: co-IP; HEK293 cells transiently co-transfected with srGAP3 and Myc-tagged Robo1/2 constructs; lysed in modified RIPA buffer (50 mM Tris/HCl pH 7.4, 1% NP-40, 0.25% Na-deoxycholate, 1 mM EDTA); 400 µg lysate precipitated with rabbit srGAP3 (19.1) antibody and protein A/G sepharose; blot with anti-myc 9E10
row,Substance,binding
1,"Myc-tagged Robo1, full length (from UniProt Q9Y6N7 26-1651) (receptor)",binds
2,"Myc-tagged Robo2, full length (from UniProt Q9HCK4 22-1378) (receptor)",binds

# Source: paper PMC3104994
